Literature values in patent US7320878B2, “Protease assay for therapeutic drug monitoring” (Tibotec Pharmaceuticals, Ltd., priority 2001, dated 2008).
Some results were stated once for a whole list of compounds, not compound by compound.

Tested on: plasma protein
Settings: according to multiple studies; cited from earlier work

Compound	plasma protein bound
CC(C)CN(C[C@@H](O)[C@H](Cc1ccccc1)NC(=O)O[C@H]1CCOC1)S(=O)(=O)c1ccc(N)cc1 [amprenavir]	90-99%
Cc1c(O)cccc1C(=O)N[C@@H](CSc1ccccc1)[C@H](O)CN1C[C@H]2CCCC[C@H]2C[C@H]1C(=O)NC(C)(C)C [nelfinavir]	90-99%
